# Values quoted from earlier work in US20230159961A1, “BIOSYNTHESIS OF CHEMICALLY DIVERSIFIED NON-NATURAL TERPENE PRODUCTS” (Board of Trustees of Michigan State University, priority 2019, published 2023).
# At least one compound was matched to its structure with a doubt left.
# Tested on: all subtypes of AC
# Conditions: cited from earlier work
compound,measurement,value
"C=C[C@@]1(C)CC(=O)[C@]2(O)[C@@]3(C)[C@@H](O)CCC(C)(C)[C@@H]3[C@H](O)[C@H](OC(C)=O)[C@@]2(C)O1 [Forskolin, forskolin]",activation of adenylyl cyclase,activates all subtypes of AC
